The values that follow come from patent US12590123B2 (Washington University, priority 2019, dated 2026).

The data set can be described thus: general procedure: hybrid (solid and solution phase) peptide synthesis; Fmoc-L-Lys(Boc)-Wang resin; HBTU, iPr2NEt. Particulars: whole synthesis, overall, scale of the general procedure 0.68 mmol.
Substance “(3S,6S,14S)-6-acetamido-N—((S)-1-(benzo[d]thiazol-2-yl)-5-guanidino-1-oxopentan-2-yl)-3-((S)-1-hydroxyethyl)-2,5,8-trioxo-1,4,9-triazacyclotetradecane-14-carboxamide” returned an isolated yield of 35%.

“2-(((3S,6S,14S)-6-acetamido-3-isobutyl-2,5,8-trioxo-1,4,9-triazacyclotetradecane-14-carbonyl)-L-arginyl)-N—((R)-1-amino-3-methyl-1-oxobutan-2-yl)benzo[d]thiazole-6-carboxamide”: the isolated yield stood at 50%.

In turn, “(3S,6S,14S)-6-acetamido-N—((S)-1-(benzo[d]thiazol-2-yl)-5-guanidino-1-oxopentan-2-yl)-3-isopropyl-2,5,8-trioxo-1,4,9-triazacyclotetradecane-14-carboxamide” had an isolated yield of 45%. As for “(2S,5S,13S)-13-acetamido-N—((S)-1-(benzo[d]thiazol-2-yl)-5-guanidino-1-oxopentan-2-yl)-2-isobutyl-3,7,14-trioxo-1,4,8-triazacyclotetradecane-5-carboxamide”, the isolated yield is reported as 32%.

In the case of “(2S,5S,14S)-14-acetamido-N—((S)-1-(benzo[d]thiazol-2-yl)-5-guanidino-1-oxopentan-2-yl)-2-isobutyl-3,8,15-trioxo-1,4,9-triazacyclopentadecane-5-carboxamide”, the isolated yield came to 32%. Take “(2S,5S,14S)-14-acetamido-N—((S)-1-(benzo[d]thiazol-2-yl)-5-guanidino-1-oxopentan-2-yl)-2-isobutyl-3,11,15-trioxo-1,4,10-triazacyclopentadecane-5-carboxamide”: the isolated yield was found to be 34%.

In turn, “(3S,6S,14S)-6-amino-N—((S)-1-(benzo[d]thiazol-2-yl)-5-guanidino-1-oxopentan-2-yl)-3-isobutyl-2,5,8-trioxo-1,4,9-triazacyclotetradecane-14-carboxamide” returned an isolated yield of 30%. The same measure for “(3S,6S,14S)-6-acetamido-3-(2-amino-2-oxoethyl)-N—((S)-1-(benzo[d]thiazol-2-yl)-5-guanidino-1-oxopentan-2-yl)-2,5,8-trioxo-1,4,9-triazacyclotetradecane-14-carboxamide”: 41%. With “(3S,6S,14S)-6-acetamido-N—((S)-1-(benzo[d]thiazol-2-yl)-5-guanidino-1-oxopentan-2-yl)-3-benzyl-2,5,8-trioxo-1,4,9-triazacyclotetradecane-14-carboxamide” the figure was 45%.

For the substance “(3S,6S,14S)-6-acetamido-N—((S)-5-guanidino-1-oxo-1-(thiazol-2-yl)pentan-2-yl)-3-isobutyl-2,5,8-trioxo-1,4,9-triazacyclotetradecane-14-carboxamide”, the isolated yield was 55%.

The substance “(6S,14S)-6-acetamido-N—((S)-1-(benzo[d]thiazol-2-yl)-5-guanidino-1-oxopentan-2-yl)-2,5,8-trioxo-1,4,9-triazacyclotetradecane-14-carboxamide” gave an isolated yield of 42%.

Turning to “(2S,5S,14S)-14-acetamido-N—((S)-1-(benzo[d]thiazol-2-yl)-5-guanidino-1-oxopentan-2-yl)-2-(3-guanidinopropyl)-3,8,15-trioxo-1,4,9-triazacyclopentadecane-5-carboxamide”, the isolated yield stood at 35%. The same measure for “(2S,5S,13S)-13-amino-N—((S)-1-(benzo[d]thiazol-2-yl)-5-guanidino-1-oxopentan-2-yl)-2-isobutyl-3,7,14-trioxo-1,4,8-triazacyclotetradecane-5-carboxamide”: 32%; for “(3S,6S,14S)-6-acetamido-N—((S)-1-(benzo[d]thiazol-2-yl)-5-guanidino-1-oxopentan-2-yl)-3-isobutyl-2,5,8-trioxo-1,4,9-triazacyclotetradecane-14-carboxamide”: 55%; for “(3S,6S,14S)-6-acetamido-N—((S)-1-(benzo[d]thiazol-2-yl)-5-guanidino-1-oxopentan-2-yl)-3-methyl-2,5,8-trioxo-1,4,9-triazacyclotetradecane-14-carboxamide”: 45%.

With “(3S,6S,14S)-6-acetamido-N—((S)-1-(benzo[d]thiazol-2-yl)-5-guanidino-1-oxopentan-2-yl)-3-(2-(methylthio)ethyl)-2,5,8-trioxo-1,4,9-triazacyclotetradecane-14-carboxamide”, the isolated yield was found to be 45%. The same measure for “(3S,6S,14S)-6-acetamido-3-(3-amino-3-oxopropyl)-N—((S)-1-(benzo[d]thiazol-2-yl)-5-guanidino-1-oxopentan-2-yl)-2,5,8-trioxo-1,4,9-triazacyclotetradecane-14-carboxamide”: 30%. On to “(3S,6S,14S)-6-acetamido-N—((S)-1-(benzo[d]thiazol-2-yl)-5-guanidino-1-oxopentan-2-yl)-3-(4-hydroxybenzyl)-2,5,8-trioxo-1,4,9-triazacyclotetradecane-14-carboxamide”, for which the isolated yield was determined as 38%.
